Reference: PubChem BioAssay AID1259254 (NCATS, 2017)

- Assay: 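Gene knock-downs that lead to re-replication, shown by excess G2 DNA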 (primary screen)
- Cells: human HCT116 colorectal cancer cells
- Reagent: single siRNA against human genes
- Duration: 3 days
- Measurement: 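Imaged Hoechst DNA stain sorts each cell into a cycle phase by DNA amount; per plate, G2 fraction set to 0% for non-targeting and 100% for GMNN siRNA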
- Reading the numbers: G2 robust z-score: higher = more G2 cells, more excess DNA replication
- Rule for the call: 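Active siRNAs have a G2 robust z of 5 or more median absolute deviations over the median, which in these data means about 38% or higher of GMNN control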
Here is a random part of about 59,000 reagents. About 1,550 of them (2.6%) count as active. 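G2 share is only a proxy for re-replication; each gene was hit by three separate siRNAs, and active genes were retested.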 The numbers tell different reagents against one gene apart. Not all columns of the deposit are shown. Not stated in the record: the amount of reagent.

After knock-down of PTRH1 (peptidyl-tRNA hydrolase 1 homolog) #1 the results were G2 robust z-score 1.3; inactive. With knock-down of PTRH1 (peptidyl-tRNA hydrolase 1 homolog) #2, the record shows G2 robust z-score -0.839; inactive. For PTRH1 (peptidyl-tRNA hydrolase 1 homolog) #3, the values are G2 robust z-score 0.181; inactive. For DNTT (DNA nucleotidylexotransferase) #1 the deposit lists G2 robust z-score 0.361; inactive. For DNTT (DNA nucleotidylexotransferase) #2, the entry reads G2 robust z-score 1.96; inactive. After knock-down of DNTT (DNA nucleotidylexotransferase) #3, the record shows G2 robust z-score 2.08; inactive.

NUTM2E (NUT family member 2E) #1 gave G2 robust z-score -0.677; inactive. Knock-down of NUTM2E (NUT family member 2E) #2 gave: G2 robust z-score -0.624; inactive. NUTM2E (NUT family member 2E) #3 scored G2 robust z-score -0.627; inactive. For PHACTR3 (phosphatase and actin regulator 3) #1, the values are G2 robust z-score 0.399; inactive. For PHACTR3 (phosphatase and actin regulator 3) #2, the values are G2 robust z-score -0.869; inactive. After knock-down of PHACTR3 (phosphatase and actin regulator 3) #3 the results were G2 robust z-score -1.01; inactive.

Depletion of ADARB1 (adenosine deaminase RNA specific B1) #1 came out at: G2 robust z-score -1.27; inactive. ADARB1 (adenosine deaminase RNA specific B1) #2 scored G2 robust z-score -0.648; inactive. Depletion of ADARB1 (adenosine deaminase RNA specific B1) #3 came out at: G2 robust z-score -0.782; inactive. POLR1C (RNA polymerase I and III subunit C) #1 showed G2 robust z-score 1.75; inactive. Silencing of POLR1C (RNA polymerase I and III subunit C) #2 resulted in: G2 robust z-score 0.874; inactive. With knock-down of POLR1C (RNA polymerase I and III subunit C) #3, the record shows G2 robust z-score -0.0692; inactive.

2 neighbouring records already listed, quoted:
PTRH1 (peptidyl-tRNA hydrolase 1 homolog) #2 → G2 robust z-score: -0.839; outcome: inactive
PTRH1 (peptidyl-tRNA hydrolase 1 homolog) #3 → G2 robust z-score: 0.181; outcome: inactive
